According to the supplement of paper PMC10849652:
Some of the results follow.

By UniProt entry, the sequences of proteins in these tests, tags left out. Where a name states a change or a piece, a line headed by the entry shows the natural chain unless it says otherwise.
UniProt Q13177, whole entry, looked up: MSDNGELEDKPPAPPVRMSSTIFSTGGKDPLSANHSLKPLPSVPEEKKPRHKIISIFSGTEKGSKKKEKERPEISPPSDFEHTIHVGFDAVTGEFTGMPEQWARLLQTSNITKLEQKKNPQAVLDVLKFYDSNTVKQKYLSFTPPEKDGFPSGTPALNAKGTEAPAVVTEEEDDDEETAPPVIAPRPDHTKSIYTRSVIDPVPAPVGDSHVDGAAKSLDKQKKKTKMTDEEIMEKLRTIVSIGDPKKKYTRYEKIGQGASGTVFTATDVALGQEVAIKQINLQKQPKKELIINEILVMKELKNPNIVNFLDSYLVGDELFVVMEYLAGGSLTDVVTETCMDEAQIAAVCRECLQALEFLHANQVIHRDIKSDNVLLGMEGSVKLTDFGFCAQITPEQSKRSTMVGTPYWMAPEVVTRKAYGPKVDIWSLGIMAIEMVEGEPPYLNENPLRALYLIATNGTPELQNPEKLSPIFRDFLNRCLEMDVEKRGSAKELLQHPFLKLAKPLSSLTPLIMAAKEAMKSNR
UniProt Q7L3T8: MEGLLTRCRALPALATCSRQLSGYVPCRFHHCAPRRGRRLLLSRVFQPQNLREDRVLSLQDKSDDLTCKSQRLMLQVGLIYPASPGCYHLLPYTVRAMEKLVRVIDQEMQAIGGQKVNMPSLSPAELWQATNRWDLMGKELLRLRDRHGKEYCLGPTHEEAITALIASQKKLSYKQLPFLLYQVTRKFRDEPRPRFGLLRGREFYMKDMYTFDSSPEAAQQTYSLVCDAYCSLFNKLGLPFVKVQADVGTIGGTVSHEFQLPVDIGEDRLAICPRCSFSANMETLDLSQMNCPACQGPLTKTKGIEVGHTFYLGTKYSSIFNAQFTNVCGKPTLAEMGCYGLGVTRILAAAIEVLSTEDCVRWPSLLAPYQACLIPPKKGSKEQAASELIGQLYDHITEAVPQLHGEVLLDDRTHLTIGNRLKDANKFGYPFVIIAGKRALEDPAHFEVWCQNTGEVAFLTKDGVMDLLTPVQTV
UniProt Q86YH6: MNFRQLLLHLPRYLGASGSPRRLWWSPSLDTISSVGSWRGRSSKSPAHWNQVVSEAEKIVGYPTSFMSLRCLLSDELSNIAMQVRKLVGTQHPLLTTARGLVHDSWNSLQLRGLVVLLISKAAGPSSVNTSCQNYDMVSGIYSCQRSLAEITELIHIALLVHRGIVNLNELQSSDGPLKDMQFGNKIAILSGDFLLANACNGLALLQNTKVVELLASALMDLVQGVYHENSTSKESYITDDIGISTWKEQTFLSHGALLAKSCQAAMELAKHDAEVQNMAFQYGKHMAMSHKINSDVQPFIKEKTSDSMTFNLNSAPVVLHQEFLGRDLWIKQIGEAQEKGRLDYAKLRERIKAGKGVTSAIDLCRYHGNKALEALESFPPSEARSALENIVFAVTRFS
UniProt O43252: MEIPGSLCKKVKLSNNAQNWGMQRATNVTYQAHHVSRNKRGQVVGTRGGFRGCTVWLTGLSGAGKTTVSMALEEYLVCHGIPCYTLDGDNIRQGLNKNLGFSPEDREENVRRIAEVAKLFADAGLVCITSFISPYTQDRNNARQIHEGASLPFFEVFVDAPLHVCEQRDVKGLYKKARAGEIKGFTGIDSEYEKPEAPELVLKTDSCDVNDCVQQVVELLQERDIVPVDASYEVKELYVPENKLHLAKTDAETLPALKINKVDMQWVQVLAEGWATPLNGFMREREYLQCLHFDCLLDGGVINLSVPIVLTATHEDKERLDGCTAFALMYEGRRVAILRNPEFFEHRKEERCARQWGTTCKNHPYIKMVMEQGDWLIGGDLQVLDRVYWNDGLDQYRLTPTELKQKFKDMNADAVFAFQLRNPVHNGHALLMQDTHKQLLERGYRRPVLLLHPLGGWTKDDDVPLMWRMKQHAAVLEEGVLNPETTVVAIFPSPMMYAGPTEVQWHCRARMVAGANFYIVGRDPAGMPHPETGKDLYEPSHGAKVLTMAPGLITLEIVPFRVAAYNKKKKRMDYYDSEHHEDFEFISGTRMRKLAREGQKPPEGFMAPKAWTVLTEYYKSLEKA
UniProt Q13371: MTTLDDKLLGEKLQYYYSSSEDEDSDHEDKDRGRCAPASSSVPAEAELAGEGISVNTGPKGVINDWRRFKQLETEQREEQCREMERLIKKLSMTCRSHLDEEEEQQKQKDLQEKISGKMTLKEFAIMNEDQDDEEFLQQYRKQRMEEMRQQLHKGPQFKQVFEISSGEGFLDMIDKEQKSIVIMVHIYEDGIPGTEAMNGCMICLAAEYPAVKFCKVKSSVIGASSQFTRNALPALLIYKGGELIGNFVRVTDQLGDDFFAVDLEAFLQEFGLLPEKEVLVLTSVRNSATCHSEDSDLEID
UniProt Q6P996: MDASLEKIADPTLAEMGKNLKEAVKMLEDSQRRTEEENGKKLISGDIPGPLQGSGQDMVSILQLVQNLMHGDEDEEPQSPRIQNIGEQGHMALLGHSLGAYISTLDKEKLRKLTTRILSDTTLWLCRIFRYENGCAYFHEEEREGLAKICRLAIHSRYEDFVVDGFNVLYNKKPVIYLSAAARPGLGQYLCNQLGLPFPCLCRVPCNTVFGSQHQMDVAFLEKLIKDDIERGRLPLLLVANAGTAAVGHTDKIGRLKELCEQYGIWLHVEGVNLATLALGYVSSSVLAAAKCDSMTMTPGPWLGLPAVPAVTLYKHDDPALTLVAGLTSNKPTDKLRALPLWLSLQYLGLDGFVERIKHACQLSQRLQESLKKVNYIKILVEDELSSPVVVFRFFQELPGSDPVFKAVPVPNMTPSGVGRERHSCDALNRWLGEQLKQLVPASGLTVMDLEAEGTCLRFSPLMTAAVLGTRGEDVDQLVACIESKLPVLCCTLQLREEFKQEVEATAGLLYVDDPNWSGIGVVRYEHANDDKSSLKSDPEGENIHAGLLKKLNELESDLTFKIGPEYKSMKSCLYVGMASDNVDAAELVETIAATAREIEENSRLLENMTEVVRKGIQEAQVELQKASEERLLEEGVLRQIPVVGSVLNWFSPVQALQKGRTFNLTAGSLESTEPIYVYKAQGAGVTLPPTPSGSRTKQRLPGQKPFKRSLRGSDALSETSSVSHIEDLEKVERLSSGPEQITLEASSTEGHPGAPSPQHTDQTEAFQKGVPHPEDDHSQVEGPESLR
UniProt Q9UKL6: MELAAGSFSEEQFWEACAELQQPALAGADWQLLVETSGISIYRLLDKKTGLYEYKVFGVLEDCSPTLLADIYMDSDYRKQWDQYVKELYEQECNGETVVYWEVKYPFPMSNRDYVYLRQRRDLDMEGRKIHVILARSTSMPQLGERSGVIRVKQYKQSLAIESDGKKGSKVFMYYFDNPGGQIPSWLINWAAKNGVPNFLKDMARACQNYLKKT
UniProt P68402: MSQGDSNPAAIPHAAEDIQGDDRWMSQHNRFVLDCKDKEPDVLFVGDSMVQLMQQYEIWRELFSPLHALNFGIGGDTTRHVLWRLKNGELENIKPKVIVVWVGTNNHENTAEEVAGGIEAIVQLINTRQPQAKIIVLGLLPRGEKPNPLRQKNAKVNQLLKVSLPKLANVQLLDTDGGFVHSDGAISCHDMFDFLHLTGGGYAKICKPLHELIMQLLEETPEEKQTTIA
UniProt Q16822, whole entry, looked up: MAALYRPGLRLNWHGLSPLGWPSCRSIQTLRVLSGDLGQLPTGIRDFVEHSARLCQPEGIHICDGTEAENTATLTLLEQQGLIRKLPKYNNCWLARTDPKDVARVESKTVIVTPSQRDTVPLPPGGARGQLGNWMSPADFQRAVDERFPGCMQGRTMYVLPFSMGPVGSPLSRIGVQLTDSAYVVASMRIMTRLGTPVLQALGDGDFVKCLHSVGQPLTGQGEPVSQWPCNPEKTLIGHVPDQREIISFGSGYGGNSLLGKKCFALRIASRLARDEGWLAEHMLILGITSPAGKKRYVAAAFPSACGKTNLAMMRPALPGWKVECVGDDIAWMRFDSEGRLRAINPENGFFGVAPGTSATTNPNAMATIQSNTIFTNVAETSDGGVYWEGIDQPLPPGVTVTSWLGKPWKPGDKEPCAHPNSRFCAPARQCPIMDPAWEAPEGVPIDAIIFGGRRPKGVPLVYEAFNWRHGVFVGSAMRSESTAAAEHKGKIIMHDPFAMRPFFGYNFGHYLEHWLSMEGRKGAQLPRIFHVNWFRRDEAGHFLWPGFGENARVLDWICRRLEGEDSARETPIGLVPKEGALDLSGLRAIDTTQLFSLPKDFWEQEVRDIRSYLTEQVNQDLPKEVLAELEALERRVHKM
UniProt Q8NEN9: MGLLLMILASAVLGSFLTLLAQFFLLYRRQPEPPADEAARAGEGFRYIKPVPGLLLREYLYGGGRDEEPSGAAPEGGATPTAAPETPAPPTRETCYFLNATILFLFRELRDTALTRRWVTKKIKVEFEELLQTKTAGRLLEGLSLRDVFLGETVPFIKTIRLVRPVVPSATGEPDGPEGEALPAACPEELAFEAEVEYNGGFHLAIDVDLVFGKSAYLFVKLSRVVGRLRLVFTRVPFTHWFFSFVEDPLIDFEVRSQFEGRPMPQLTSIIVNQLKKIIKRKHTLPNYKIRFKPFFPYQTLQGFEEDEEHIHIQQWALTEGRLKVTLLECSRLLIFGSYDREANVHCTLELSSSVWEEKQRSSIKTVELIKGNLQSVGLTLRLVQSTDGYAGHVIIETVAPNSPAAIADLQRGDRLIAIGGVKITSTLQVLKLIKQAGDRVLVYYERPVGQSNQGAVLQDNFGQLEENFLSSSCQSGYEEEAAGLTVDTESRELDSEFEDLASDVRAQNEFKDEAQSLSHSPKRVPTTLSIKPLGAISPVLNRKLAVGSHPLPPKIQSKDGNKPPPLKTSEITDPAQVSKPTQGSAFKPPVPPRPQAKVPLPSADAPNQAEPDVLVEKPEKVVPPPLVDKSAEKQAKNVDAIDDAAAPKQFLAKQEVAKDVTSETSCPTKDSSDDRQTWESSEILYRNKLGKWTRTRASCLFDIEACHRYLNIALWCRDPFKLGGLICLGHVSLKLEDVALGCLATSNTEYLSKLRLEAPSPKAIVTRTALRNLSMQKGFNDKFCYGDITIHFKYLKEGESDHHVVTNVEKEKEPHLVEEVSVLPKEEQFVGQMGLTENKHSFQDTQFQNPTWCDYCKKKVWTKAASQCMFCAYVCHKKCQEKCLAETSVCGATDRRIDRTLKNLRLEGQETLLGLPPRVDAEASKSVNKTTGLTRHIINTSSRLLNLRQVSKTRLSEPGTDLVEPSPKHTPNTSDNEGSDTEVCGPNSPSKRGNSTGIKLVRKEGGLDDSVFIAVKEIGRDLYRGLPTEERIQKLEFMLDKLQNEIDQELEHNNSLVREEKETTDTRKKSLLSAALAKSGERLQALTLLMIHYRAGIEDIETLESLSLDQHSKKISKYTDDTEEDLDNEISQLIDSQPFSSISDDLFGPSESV
UniProt Q9BUH6, whole entry, looked up: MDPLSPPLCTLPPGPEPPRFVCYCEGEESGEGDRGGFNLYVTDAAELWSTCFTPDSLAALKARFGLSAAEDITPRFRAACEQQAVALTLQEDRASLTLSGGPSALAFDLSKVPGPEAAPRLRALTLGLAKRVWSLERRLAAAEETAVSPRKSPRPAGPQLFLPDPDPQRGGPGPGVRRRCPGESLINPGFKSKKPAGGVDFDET
UniProt Q9H074: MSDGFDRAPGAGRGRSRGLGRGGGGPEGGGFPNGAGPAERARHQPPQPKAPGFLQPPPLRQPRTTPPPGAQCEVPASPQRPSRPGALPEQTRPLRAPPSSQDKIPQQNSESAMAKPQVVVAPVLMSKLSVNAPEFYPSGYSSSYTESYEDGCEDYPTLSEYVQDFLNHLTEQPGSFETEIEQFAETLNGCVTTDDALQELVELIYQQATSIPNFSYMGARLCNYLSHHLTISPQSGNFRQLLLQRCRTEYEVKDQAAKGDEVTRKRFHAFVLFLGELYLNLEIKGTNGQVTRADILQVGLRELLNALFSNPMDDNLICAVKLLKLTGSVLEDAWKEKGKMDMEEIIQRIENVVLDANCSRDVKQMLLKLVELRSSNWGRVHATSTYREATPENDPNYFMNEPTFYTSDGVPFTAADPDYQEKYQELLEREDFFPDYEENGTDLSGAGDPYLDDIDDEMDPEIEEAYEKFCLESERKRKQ
UniProt P22061: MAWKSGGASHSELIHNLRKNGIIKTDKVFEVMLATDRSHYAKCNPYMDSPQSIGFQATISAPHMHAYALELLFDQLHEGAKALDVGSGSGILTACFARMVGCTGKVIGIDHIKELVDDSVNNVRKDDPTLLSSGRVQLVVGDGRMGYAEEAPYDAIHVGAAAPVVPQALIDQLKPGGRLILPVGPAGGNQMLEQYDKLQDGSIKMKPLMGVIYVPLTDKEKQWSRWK
UniProt Q9BVG4: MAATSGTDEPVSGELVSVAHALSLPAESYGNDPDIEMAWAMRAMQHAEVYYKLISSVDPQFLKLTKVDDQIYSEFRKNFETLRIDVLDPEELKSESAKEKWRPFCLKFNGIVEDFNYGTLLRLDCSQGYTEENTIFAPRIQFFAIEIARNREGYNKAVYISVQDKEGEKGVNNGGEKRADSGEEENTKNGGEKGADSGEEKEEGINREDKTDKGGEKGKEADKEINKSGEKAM

How the values were obtained:
Assay in all cases: log2 fold change, soluble protein after heating vs DMSO (PISA); higher = thermal stabilisation; K562 cells, 10 uM, 30 min; active = over 0.2 and 3.5 SD of the protein, either way, in both replicates (recomputed)
bafetinib = compound: Cc1ccc(NC(=O)c2ccc(CN3CC[C@H](N(C)C)C3)c(C(F)(F)F)c2)cc1Nc1nccc(-c2cncnc2)n1 [bafetinib]
Summary of the method: (§1)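 Values are thermal stability changes relative to control samples and are taken from duplicates. They are stated as log2 fold changes. Before quantification by TMTpro 16plex LC-MS/MS with equalised channel sums, K562 cells at 2×10^6 cells/mL were treated with 10 μM compound for 30 min, heated in aliquots for 3 min across 48°C-58°C, pooled, extracted in PBS with 0.5% NP-40 at 4°C, and centrifuged at 21,000xg for 90 min to give the soluble supernatant.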

[1] = compound: Cc1cccc(CC(=O)N2CCc3c2ccc(-c2cn(C)c4ncnc(N)c24)c3F)n1
Summary of the method: as §1

nilotinib = compound: Cc1cn(-c2cc(NC(=O)c3ccc(C)c(Nc4nccc(-c5cccnc5)n4)c3)cc(C(F)(F)F)c2)cn1 [nilotinib]
Summary of the method: as §1

[2] = compound: Cc1nc(Nc2n[nH]c3c2CN(C(=O)N[C@H](CN(C)C)c2ccccc2)C3(C)C)c2sccc2n1
Summary of the method: as §1

dasatinib = compound: Cc1nc(Nc2ncc(C(=O)Nc3c(C)cccc3Cl)s2)cc(N2CCN(CCO)CC2)n1 [dasatinib]
Summary of the method: as §1

[3] = compound: Cc1ncc(-c2ccnc(Nc3ccc(S(C)(=O)=O)cc3)n2)n1C(C)C
Summary of the method: as §1

[4] = compound: Cn1cc(-c2ccc3c(c2)CCN3C(=O)Cc2cccc(C(F)(F)F)c2)c2c(N)ncnc21
Summary of the method: as §1

[5] = compound: Cn1cc(-c2ccc3nnc(C(F)(F)c4ccc5ncccc5c4)n3n2)cn1
Summary of the method: as §1

tipifarnib = compound: Cn1cncc1[C@@](N)(c1ccc(Cl)cc1)c1ccc2c(c1)c(-c1cccc(Cl)c1)cc(=O)n2C [tipifarnib]
Summary of the method: as §1

mubritinib = compound: FC(F)(F)c1ccc(/C=C/c2nc(COc3ccc(CCCCn4ccnn4)cc3)co2)cc1 [mubritinib]
Summary of the method: as §1

Measured: log2 fold change

PDRG1 (UniProt Q9NUG6)
inactive: bafetinib 0.017 | [1] -0.001 | nilotinib 0.003 | [2] -0.014 | dasatinib 0.047 | [3] -0.002 | [4] 0.018 | [5] -0.063 | tipifarnib -0.013 | mubritinib 0.044

PAK2 (UniProt Q13177)
inactive: bafetinib -0.043 | [1] -0.006 | nilotinib 0.04 | [2] 0.002 | dasatinib -0.008 | [3] 0.02 | [4] 0 | [5] 0.047 | tipifarnib -0.005 | mubritinib 0.027

PDCD2L (UniProt Q9BRP1)
inactive: bafetinib 0.026 | [1] 0.077 | nilotinib -0.137 | [2] 0.035 | dasatinib -0.122 | [3] -0.062 | [4] -0.022 | [5] 0.015 | tipifarnib -0.13 | mubritinib 0.018

PDCD4 (UniProt Q53EL6)
inactive: bafetinib 0.065 | [1] -0.014 | nilotinib 0.017 | [2] 0.025 | dasatinib -0.144 | [3] 0.144 | [4] 0.022 | [5] 0.077 | tipifarnib -0.172 | mubritinib 0.104

PARS2 (UniProt Q7L3T8)
inactive: bafetinib 0.04 | [1] -0.078 | nilotinib 0.018 | [2] 0.098 | dasatinib -0.001 | [3] 0.065 | [4] 0.019 | [5] -0.039 | tipifarnib 0.06 | mubritinib 0.012

PANK4 (UniProt Q9NVE7)
inactive: bafetinib -0.032 | [1] 0.019 | nilotinib -0.051 | [2] 0.113 | dasatinib -0.086 | [3] 0.072 | [4] 0.025 | [5] 0.026 | tipifarnib 0.109 | mubritinib -0.08

PDSS2 (UniProt Q86YH6)
inactive: bafetinib 0.077 | [1] 0.048 | nilotinib 0.029 | [2] 0.163 | dasatinib 0.06 | [3] -0.154 | [4] 0.052 | [5] 0.02 | tipifarnib -0.095

PAPSS1 (UniProt O43252)
inactive: bafetinib -0.067 | [1] 0.026 | nilotinib -0.003 | [2] -0.013 | dasatinib -0.007 | [3] -0.025 | [4] 0.044 | [5] 0.022 | tipifarnib -0.002 | mubritinib 0.023

PANK3 (UniProt Q9H999)
inactive: bafetinib -0.06 | [1] -0.04 | nilotinib -0.018 | [2] 0.146 | dasatinib 0.067 | [3] -0.103 | [4] 0.204 | [5] 0.055 | tipifarnib -0.003

PDCL (UniProt Q13371)
inactive: bafetinib -0.026 | [1] -0.016 | nilotinib -0.02 | [2] -0.003 | dasatinib 0.003 | [3] -0.001 | [4] 0.022 | [5] -0.011 | tipifarnib -0.025 | mubritinib 0.146

PARD6B (UniProt Q9BYG5)
inactive: bafetinib 0.011 | [1] 0.022 | nilotinib -0.022 | [2] 0.025 | dasatinib -0.045 | [3] -0.021 | [4] 0.034 | [5] 0.09 | tipifarnib -0.155 | mubritinib 0.105

PDXDC1 (UniProt Q6P996)
inactive: bafetinib -0.167 | [1] 0.081 | nilotinib -0.051 | [2] 0.042 | dasatinib 0.018 | [3] -0.086 | [4] -0.118 | [5] -0.158 | tipifarnib -0.083 | mubritinib -0.058

PCYOX1 (UniProt Q9UHG3)
inactive: bafetinib 0.057 | [1] -0.001 | nilotinib 0.085 | [2] 0.071 | dasatinib 0.057 | [3] -0.019 | [4] -0.123 | [5] 0.004 | tipifarnib -0.019 | mubritinib -0.021

PCTP (UniProt Q9UKL6)
inactive: bafetinib -0.067 | [1] -0.004 | nilotinib -0.04 | [2] 0.114 | dasatinib -0.024 | [3] -0.017 | [4] 0.065 | [5] 0.036 | tipifarnib -0.104 | mubritinib 0.063

PDIA4 (UniProt P13667)
inactive: bafetinib 0.036 | [1] 0 | nilotinib -0.005 | [2] 0.049 | dasatinib -0.007 | [3] -0.035 | [4] -0.067 | [5] -0.027 | tipifarnib 0.049 | mubritinib -0.125

PDAP1 (UniProt Q13442)
inactive: bafetinib 0.034 | [1] -0.032 | nilotinib 0.006 | [2] 0.002 | dasatinib 0.022 | [3] -0.005 | [4] -0.014 | [5] 0.005 | tipifarnib 0.011 | mubritinib 0.042

PARG (UniProt Q86W56)
inactive: bafetinib 0.166 | [1] 0.118 | nilotinib 0.004 | [2] -0.123 | dasatinib -0.162 | [3] -0.025 | [4] 0.093 | [5] -0.015 | tipifarnib -0.061 | mubritinib 0.061

PAFAH1B2 (UniProt P68402)
inactive: bafetinib -0.025 | [1] 0.035 | nilotinib 0.067 | [2] -0.121 | dasatinib -0.011 | [3] -0.075 | [4] 0.024 | [5] 0.003 | tipifarnib 0.188 | mubritinib 0.092

PDLIM1 (UniProt O00151)
inactive: bafetinib -0.055 | [1] -0.016 | nilotinib 0.011 | [2] -0.005 | dasatinib 0.036 | [3] -0.01 | [4] 0.004 | [5] -0.019 | tipifarnib -0.045 | mubritinib 0.009

PCK2 (UniProt Q16822)
inactive: bafetinib -0.052 | [1] 0.027 | nilotinib -0.05 | [2] 0.027 | dasatinib -0.035 | [3] -0.006 | [4] 0.041 | [5] 0.003 | tipifarnib 0 | mubritinib -0.022

PDZD8 (UniProt Q8NEN9)
inactive: bafetinib -0.054 | [1] 0.006 | nilotinib 0.001 | [2] -0.031 | dasatinib -0.029 | [3] -0.044 | [4] 0.057 | [5] -0.011 | tipifarnib 0.038 | mubritinib -0.009

Two consecutive records out of the list so far, for reference:
PARG (UniProt Q86W56)
inactive: bafetinib 0.166 | [1] 0.118 | nilotinib 0.004 | [2] -0.123 | dasatinib -0.162 | [3] -0.025 | [4] 0.093 | [5] -0.015 | tipifarnib -0.061 | mubritinib 0.061

PAFAH1B2 (UniProt P68402)
inactive: bafetinib -0.025 | [1] 0.035 | nilotinib 0.067 | [2] -0.121 | dasatinib -0.011 | [3] -0.075 | [4] 0.024 | [5] 0.003 | tipifarnib 0.188 | mubritinib 0.092

The results go on.

PDCD11 (UniProt Q14690)
inactive: bafetinib 0.094 | [1] -0.008 | nilotinib -0.215 | [2] 0.196 | dasatinib 0.186 | [3] -0.093 | [4] 0.009 | [5] 0.109 | tipifarnib -0.152 | mubritinib 0.134

PDLIM4 (UniProt P50479)
inactive: bafetinib -0.048 | [1] 0.003 | nilotinib 0.023 | [2] 0.002 | dasatinib 0.065 | [3] -0.009 | [4] 0.032 | [5] 0.001 | tipifarnib -0.021 | mubritinib 0.057

PAXX (UniProt Q9BUH6)
inactive: bafetinib -0.049 | [1] 0.027 | nilotinib 0.05 | [2] -0.011 | dasatinib -0.011 | [3] -0.009 | [4] 0.019 | [5] 0.03 | tipifarnib -0.023 | mubritinib 0.041

PEX1 (UniProt O43933)
inactive: bafetinib -0.04 | [1] 0.004 | nilotinib 0.005 | [2] -0.001 | dasatinib -0.015 | [3] -0.034 | [4] -0.003 | [5] 0.004 | tipifarnib 0.046 | mubritinib 0.028

PAIP1 (UniProt Q9H074)
inactive: bafetinib -0.044 | [1] -0.034 | nilotinib -0.004 | [2] 0.008 | dasatinib -0.005 | [3] 0.042 | [4] 0.011 | [5] 0.04 | tipifarnib -0.022 | mubritinib 0.048

PCMT1 isoform 2 (UniProt P22061)
inactive: bafetinib 0.001 | [1] -0.023 | nilotinib 0.04 | [2] 0.022 | dasatinib -0.02 | [3] -0.009 | [4] 0.05 | [5] -0.008 | tipifarnib -0.049 | mubritinib 0.051

PBDC1 (UniProt Q9BVG4)
inactive: bafetinib -0.052 | [1] -0.084 | nilotinib -0.075 | [2] 0.002 | dasatinib -0.062 | [3] -0.047 | [4] 0.039 | [5] 0.016 | tipifarnib -0.103 | mubritinib 0.008

PDPR (UniProt Q8NCN5)
inactive: bafetinib -0.033 | [1] 0.016 | nilotinib 0.102 | [2] -0.056 | dasatinib -0.013 | [3] -0.024 | [4] 0.037 | [5] 0.046 | tipifarnib 0.004 | mubritinib 0.076

PC (UniProt P11498)
inactive: bafetinib 0.096 | [1] 0.102 | nilotinib -0.014 | [2] 0.121 | dasatinib 0.005 | [3] -0.007 | [4] 0.047 | [5] 0.074 | tipifarnib -0.097 | mubritinib 0.024
